# Experimental data published in PubChem BioAssay AID743255 (National Center for Advancing Translational Sciences (NCATS), 2014).
# The chains behind the UniProt entries cited, without tags or fusion partners. Where a name states a change or a piece, a line headed by the entry shows the natural chain unless it says otherwise.
# UniProt O94782: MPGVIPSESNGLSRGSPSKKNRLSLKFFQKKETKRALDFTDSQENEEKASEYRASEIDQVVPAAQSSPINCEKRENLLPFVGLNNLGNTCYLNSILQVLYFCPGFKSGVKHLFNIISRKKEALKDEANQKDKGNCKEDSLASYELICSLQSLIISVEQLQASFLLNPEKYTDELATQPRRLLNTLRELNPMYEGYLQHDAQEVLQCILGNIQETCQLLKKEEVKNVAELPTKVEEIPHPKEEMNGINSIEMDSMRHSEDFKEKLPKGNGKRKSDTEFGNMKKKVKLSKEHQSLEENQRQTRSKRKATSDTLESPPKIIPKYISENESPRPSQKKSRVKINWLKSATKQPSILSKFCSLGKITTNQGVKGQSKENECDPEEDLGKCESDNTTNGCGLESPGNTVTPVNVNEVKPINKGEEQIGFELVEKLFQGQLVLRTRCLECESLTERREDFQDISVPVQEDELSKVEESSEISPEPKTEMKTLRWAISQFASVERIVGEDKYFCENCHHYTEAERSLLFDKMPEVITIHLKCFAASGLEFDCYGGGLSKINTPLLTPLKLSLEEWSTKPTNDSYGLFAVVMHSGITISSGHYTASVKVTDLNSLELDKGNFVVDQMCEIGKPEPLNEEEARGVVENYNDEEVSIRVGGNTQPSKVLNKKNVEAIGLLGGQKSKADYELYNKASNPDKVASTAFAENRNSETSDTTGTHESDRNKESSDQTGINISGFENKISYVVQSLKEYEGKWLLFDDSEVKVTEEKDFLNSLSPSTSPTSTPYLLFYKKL
# In all, about 390,000 compounds went through this assay and about 910 (0.23%) were called active. Inconclusive means that the source gave no clear call. Such entries were picked first, then a sample of the others. Calls come from the whole dose curve; as a rule, active = well fitted inhibition curve with a large enough effect; inconclusive = small, poorly fitted or top-dose-only effect; inactive = no such curve, though single readings can be large or run the other way. Where the call is inconclusive, the potency comes from a doubtful curve fit.
# Target: Ubiquitin carboxyl-terminal hydrolase 1 (Homo sapiens) (UniProt O94782)
# Assay: Inhibitors of USP1/UAF1: Primary Screen; note: nearly all actives have a fitted effect of over 60% in size
# Conditions: recombinant USP1/UAF1, Ub-Rhodamine cleavage fluorescence; series mostly up to 57.1 µM
# Procedure, shortened: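 In this screen, compounds sit with the deubiquitinase complex (1nM) for 15 min at room temperature before Ub-Rho is added at 150nM final. Fluorescence rise is then followed for 6 reads every 60 seconds.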
# Potency is the fitted concentration of half-maximal effect.
row,Structure (SMILES),Potency
1,Cc1cccc(NC(=O)C(=O)NCC2CCCO2)c1 (configuration not stated),inactive
2,O=C(NCc1nc2ccccc2[nH]1)C1=C[C@@H](c2ccccc2)C[C@@H](OCc2ccc(CO)cc2)O1,"inconclusive: 56.2 µM [inhibitor, partial curve, poor fit]"
3,O=C(C1=C[C@H](c2ccc(Br)cc2)C[C@H](OCCCCO)O1)N1CCN(Cc2ccccc2)CC1,"inconclusive: 39.8 µM [inhibitor, partial curve, poor fit]"
4,CCN(CC)C1=CC(=O)OC12CCCCC2,inactive
5,CCN1CC=C2C(C#N)=C(N)C(C#N)(C#N)[C@H](c3cccc(OC)c3OC)[C@H]2C1,active: 31.6 µM
6,C[C@@H]1CN([C@H](C)CO)C(=O)Cc2cc(NS(=O)(=O)c3ccc(Cl)cc3)ccc2O[C@H]1CN(C)Cc1ccc(C(F)(F)F)cc1,"inconclusive: 56.2 µM [inhibitor, partial curve, poor fit]"
7,Cc1ccc(/C=C2/C(=O)ON=C2c2ccccc2)o1,inactive
8,Cn1c(=O)c2c(ncn2CC(=O)Nc2cccc(C(F)(F)F)c2)n(C)c1=O,"inconclusive: 3.98 µM [inhibitor, full curve]"
9,CC(=O)N1CCN(C(=O)CSc2nc3c(cnn3-c3ccccc3)c(=O)[nH]2)CC1,"inconclusive: 4.47 µM [inhibitor, partial curve]"
10,O=C(NC(Cc1ccccc1)c1nc2ccccc2[nH]1)c1ccc(Cl)c([N+](=O)[O-])c1 (configuration not stated),"inconclusive: 8.91 µM [inhibitor, partial curve]"
11,NC(=O)C1CCN(C2=C(NS(=O)(=O)c3ccc(Br)cc3)C(=O)c3ccccc3C2=O)CC1,"inconclusive: 39.8 µM [inhibitor, partial curve]"
12,CCOc1ccccc1CNS(=O)(=O)c1ccc(-c2coc(C)n2)cc1,"inconclusive: 0.0891 µM [inhibitor, full curve, poor fit]"
13,NC(=O)CC1(c2ccccc2)CCCCC1,"inconclusive: 79.4 µM [inhibitor, partial curve, poor fit]"
14,O=C(c1ccco1)[C@@H]1[C@@H]2C(=O)N(c3ccc(F)cc3)C(=O)[C@@H]2[C@H]2C=Cc3ccccc3N21,"inconclusive: 35.5 µM [inhibitor, partial curve]"
15,COCc1cc(NCc2ccc(Cl)cc2)nc(C)n1,inactive
16,O=C(c1ccc(F)cc1)c1cn(Cc2ccc(F)cc2)c2cc3c(cc2c1=O)OCCO3,"inconclusive: 0.708 µM [inhibitor, full curve, poor fit]"
17,COc1cc([N+](=O)[O-])ccc1NC(=O)CN1CCc2cc(OC)c(OC)cc2C1,"inconclusive: 2.24 µM [inhibitor, full curve, poor fit]"
